In PubChem BioAssay AID328 (DTP/NCI, 2004):
The list is a part of this screen's results and no random one: it covers a few groups of compounds. Other doses and runs of a compound may be missing. T/C is the treated group as % of the vehicle group. Some doses have a count of surviving animals in place of a T/C: the source holds a T/C of zero for them, seemingly a mark for toxic or unscored doses. Some doses without a T/C left all or most animals alive at the check, yet need not have been tolerated: survival well below the control is almost never listed, so the zero probably covers shortened survival too. Survivors were counted at the toxicity check, usually on the fifth day, unless a day is given; later deaths do not show. Schedules are NCI's codes, read here as Q, the interval in days (D) or hours (H), X, the number of doses. For survival time, the PubChem record calls one and a half times the control and up active, and a quarter to a half above the control has no call in these data; cut-offs in other NCI protocols can differ. Some entries were tested several times; the values are given in rising order. Some T/C values carry the count of animals alive at the toxicity check (mostly the fifth day); without a count or a note in brackets, all were alive then.

System: BDF1 mice, P388 leukemia ip, median survival T/C
Test: NCI In Vivo Anticancer Drug Screen. Data for tumor model P388 Leukemia (intraperitoneal) in B6D2F1 (BDF1) mice
Conditions: T/C endpoint: median survival time, higher T/C = longer survival
Method: The antitumor activity of compounds was measured in mice bearing transplantable tumors. Survival or tumor size were measured and the results are expressed as the measurement made in the treated group (T) divided by the measurement made in the vehicle treated control group (C). The tumor model used in this assay is P388 Leukemia (intraperitoneal) in B6D2F1 (BDF1) mice

[1] = dose: 0.78 mg/kg/injection, schedule: Q01DX009 (iv), vehicle: saline
[2] = dose: 100.0 mg/kg/injection, schedule: Q04DX003 (ip), vehicle: saline
[3] = dose: 200.0 mg/kg/injection, schedule: Q04DX003 (ip), vehicle: saline
[4] = dose: 400.0 mg/kg/injection, schedule: Q04DX003 (ip), vehicle: saline
[5] = dose: 150.0 mg/kg/injection, schedule: Q01DX009 (ip), vehicle: saline with Tween-80

In the case of C1CN1, the T/C (dose: 0.39 mg/kg/injection, schedule: Q01DX009 (iv), vehicle: saline) is reported as 100 and 150 % of control, the T/C [1] is reported as 112 % of control and the survivor count [1] is reported as 2 of 6. For the same compound, the T/C (dose: 0.78 mg/kg/injection, schedule: Q04DX003 (ip), vehicle: saline) was 109 % of control, the T/C (dose: 1.56 mg/kg/injection, schedule: Q01DX009 (iv), vehicle: saline) was 110 and 120 % of control and the T/C (dose: 1.56 mg/kg/injection, schedule: Q04DX003 (ip), vehicle: saline) was 109 % of control. The T/C (dose: 3.12 mg/kg/injection, schedule: Q01DX009 (iv), vehicle: saline) was 100 [5 of 6 alive] and 135 % of control, the T/C (dose: 3.12 mg/kg/injection, schedule: Q04DX003 (ip), vehicle: saline) was 109 % of control and the survivor count (dose: 4.6 mg/kg/injection, schedule: Q01DX009 (iv), vehicle: saline) was 0 of 6. The survivor count (dose: 4.6 mg/kg/injection, schedule: Q04DX003 (ip), vehicle: saline) was 3 of 6, the survivor count (dose: 4.6 mg/kg/injection, schedule: Q04DX003 (iv), vehicle: saline) was 2 of 6 and the survivor count (dose: 7.0 mg/kg/injection, schedule: Q01DX009 (iv), vehicle: saline) was 1 of 6. For the same compound, the survivor count (dose: 7.0 mg/kg/injection, schedule: Q04DX003 (ip), vehicle: saline) was 3 of 6, the survivor count (dose: 7.0 mg/kg/injection, schedule: Q04DX003 (iv), vehicle: saline) was 3 of 6 and the survivor count (dose: 10.0 mg/kg/injection, schedule: Q01DX009 (iv), vehicle: saline) was 3 of 6. The T/C (dose: 10.0 mg/kg/injection, schedule: Q04DX003 (ip), vehicle: saline) was 90 % of control [4 of 6 alive] and the survivor count (dose: 10.0 mg/kg/injection, schedule: Q04DX003 (iv), vehicle: saline) was 2 of 6.
In the case of NP(=O)(N(CCCl)CCCl)N1CC1 (stereo not given), the T/C (dose: 6.25 mg/kg/injection, schedule: Q01DX009 (ip), vehicle: saline) is reported as 189 % of control, the T/C (dose: 12.5 mg/kg/injection, schedule: Q01DX009 (ip), vehicle: saline) is reported as 224 % of control and the T/C (dose: 25.0 mg/kg/injection, schedule: Q01DX001 (ip), vehicle: saline) is reported as 130 % of control. The T/C (dose: 25.0 mg/kg/injection, schedule: Q01DX009 (ip), vehicle: saline) was 137 % of control, the T/C (dose: 25.0 mg/kg/injection, schedule: Q04DX003 (ip), vehicle: saline) was 226 % of control and the T/C (dose: 25.0 mg/kg/injection, schedule: Q08DX002 (ip), vehicle: saline) was 241 % of control. For the same compound, the T/C (dose: 50.0 mg/kg/injection, schedule: Q01DX001 (ip), vehicle: saline) was 168 % of control, the survivor count (dose: 50.0 mg/kg/injection, schedule: Q01DX009 (ip), vehicle: saline) was 6 of 6 and the T/C (dose: 50.0 mg/kg/injection, schedule: Q04DX003 (ip), vehicle: saline) was 140 % of control. For the same compound, the T/C (dose: 50.0 mg/kg/injection, schedule: Q08DX002 (ip), vehicle: saline) was 216 % of control, the T/C (dose: 100.0 mg/kg/injection, schedule: Q01DX001 (ip), vehicle: saline) was 150 % of control and the survivor count (dose: 100.0 mg/kg/injection, schedule: Q01DX009 (ip), vehicle: saline) was 5 of 6. The survivor count [2] was 5 of 6, the survivor count (dose: 100.0 mg/kg/injection, schedule: Q08DX002 (ip), vehicle: saline) was 5 of 6 and the survivor count (dose: 200.0 mg/kg/injection, schedule: Q01DX001 (ip), vehicle: saline) was 2 of 6. The survivor count [3] was 0 of 6, the survivor count (dose: 200.0 mg/kg/injection, schedule: Q08DX002 (ip), vehicle: saline) was 1 of 6 and the survivor count (dose: 400.0 mg/kg/injection, schedule: Q01DX001 (ip), vehicle: saline) was 0 of 6. For the same compound, the survivor count [4] was 0 of 6 and the survivor count (dose: 400.0 mg/kg/injection, schedule: Q08DX002 (ip), vehicle: saline) was 0 of 6.
With ICCN(CCI)c1ccccc1-c1ccccc1 the T/C (dose: 50.0 mg/kg/injection, schedule: Q01DX009 (ip), vehicle: Klucel (hydroxypropylcellulose) (HPC)) was 178 % of control, the T/C (dose: 100.0 mg/kg/injection, schedule: Q01DX009 (ip), vehicle: Klucel (hydroxypropylcellulose) (HPC)) was 171 % of control and the T/C (dose: 200.0 mg/kg/injection, schedule: Q01DX009 (ip), vehicle: Klucel (hydroxypropylcellulose) (HPC)) was 180 % of control [5 of 6 alive].
With O=C(NN(CCCl)CCCl)c1ccccc1 the T/C (dose: 13.2 mg/kg/injection, schedule: Q01DX009 (ip), vehicle: saline with Tween-80) was 95 % of control, the T/C (dose: 20.0 mg/kg/injection, schedule: Q01DX009 (ip), vehicle: saline with Tween-80) was 100 % of control [5 of 6 alive] and the T/C (dose: 30.0 mg/kg/injection, schedule: Q01DX009 (ip), vehicle: saline with Tween-80) was 116 % of control. For the same compound, the T/C (dose: 37.5 mg/kg/injection, schedule: Q01DX009 (ip), vehicle: saline with Tween-80) was 125 % of control, the T/C (dose: 44.0 mg/kg/injection, schedule: Q04DX003 (ip), vehicle: saline with Tween-80) was 100 % of control and the T/C (dose: 45.0 mg/kg/injection, schedule: Q01DX009 (ip), vehicle: saline with Tween-80) was 108 % of control. For the same compound, the T/C (dose: 66.0 mg/kg/injection, schedule: Q04DX003 (ip), vehicle: saline with Tween-80) was 121 % of control, the T/C (dose: 75.0 mg/kg/injection, schedule: Q01DX009 (ip), vehicle: saline with Tween-80) was 190 % of control and the T/C (dose: 100.0 mg/kg/injection, schedule: Q04DX003 (ip), vehicle: saline with Tween-80) was 121 % of control. The survivor count [5] was 0 of 6 and the T/C (dose: 150.0 mg/kg/injection, schedule: Q04DX003 (ip), vehicle: saline with Tween-80) was 200 % of control.
N/C(=N/[N+](=O)[O-])N(CCBr)N=O.NC1=CCCN1[N+](=O)[O-] was tested, and the T/C (dose: 50.0 mg/kg/injection, schedule: Q01DX009 (ip), vehicle: alcohol) was 100 % of control, the T/C (dose: 100.0 mg/kg/injection, schedule: Q01DX009 (ip), vehicle: alcohol) was 109 % of control and the T/C [2] was 110 % of control. The T/C (dose: 200.0 mg/kg/injection, schedule: Q01DX009 (ip), vehicle: alcohol) was 104 % of control [5 of 6 alive], the T/C [3] was 105 % of control and the survivor count [4] was 3 of 6.
ClCC1CS1 (stereo not given) was tested, and the T/C (dose: 37.5 mg/kg/injection, schedule: Q04DX003 (ip), vehicle: saline sonified) was 88 % of control, the T/C (dose: 44.0 mg/kg/injection, schedule: Q01DX009 (ip), vehicle: saline with Tween-80) was 118 % of control and the T/C (dose: 66.0 mg/kg/injection, schedule: Q01DX009 (ip), vehicle: saline with Tween-80) was 186 % of control. For the same compound, the T/C (dose: 75.0 mg/kg/injection, schedule: Q04DX003 (ip), vehicle: saline sonified) was 88 % of control, the T/C (dose: 88.0 mg/kg/injection, schedule: Q04DX003 (ip), vehicle: saline sonified) was 109 % of control and the T/C (dose: 100.0 mg/kg/injection, schedule: Q01DX009 (ip), vehicle: saline with Tween-80) was 209 % of control. The T/C (dose: 100.0 mg/kg/injection, schedule: Q04DX003 (ip), vehicle: saline sonified) was 118 % of control, the T/C (dose: 132.0 mg/kg/injection, schedule: Q04DX003 (ip), vehicle: saline sonified) was 131 % of control and the T/C [5] was 245 % of control. The T/C (dose: 150.0 mg/kg/injection, schedule: Q04DX003 (ip), vehicle: saline sonified) was 100 % of control, the T/C (dose: 200.0 mg/kg/injection, schedule: Q04DX003 (ip), vehicle: saline sonified) was 104 and 154 % of control and the T/C (dose: 300.0 mg/kg/injection, schedule: Q04DX003 (ip), vehicle: saline sonified) was 116 and 163 % of control. The T/C (dose: 400.0 mg/kg/injection, schedule: Q04DX003 (ip), vehicle: saline sonified) was 181 % of control.
